± gives the standard deviation of the averaged measurements. The entries are a selection whose mix differs from that of the whole data set.
What was measured:
Test in all cases: NP40-soluble protein abundance relative to vehicle (solubility fold change) (ratio); higher = more soluble protein in presence of ATP
[1] = target: T1, ARHGAP1 (UniProt Q07960)
T1 sequence (whole entry): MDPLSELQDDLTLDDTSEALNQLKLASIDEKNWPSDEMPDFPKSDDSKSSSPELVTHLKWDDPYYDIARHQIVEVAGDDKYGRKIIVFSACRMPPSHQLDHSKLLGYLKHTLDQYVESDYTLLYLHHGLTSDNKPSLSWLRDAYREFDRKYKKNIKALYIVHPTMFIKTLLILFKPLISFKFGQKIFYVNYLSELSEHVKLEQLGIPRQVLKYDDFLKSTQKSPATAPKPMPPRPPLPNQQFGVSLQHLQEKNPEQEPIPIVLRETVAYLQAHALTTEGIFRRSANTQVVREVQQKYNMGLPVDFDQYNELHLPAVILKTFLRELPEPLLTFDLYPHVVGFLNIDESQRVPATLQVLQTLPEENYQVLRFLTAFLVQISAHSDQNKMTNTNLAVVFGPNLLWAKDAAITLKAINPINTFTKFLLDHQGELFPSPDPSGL
Outline: (§1)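 Across three independent experiments, values are fold changes against the detergent-processed vehicle for each replicate, based on vsn-normalised intensities. The samples were Jurkat crude lysate treated with eight concentrations (0.1 to 10 mM) for 10 min at room temperature and then 3 min at 37 °C. Lysate was solubilised with 0.8% NP40 and benzonase, ultracentrifuged, and the supernatant analysed by TMT-labelled LC-MS/MS.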

[2] = target: T2, DR1 (UniProt Q01658)
T2 sequence (whole entry): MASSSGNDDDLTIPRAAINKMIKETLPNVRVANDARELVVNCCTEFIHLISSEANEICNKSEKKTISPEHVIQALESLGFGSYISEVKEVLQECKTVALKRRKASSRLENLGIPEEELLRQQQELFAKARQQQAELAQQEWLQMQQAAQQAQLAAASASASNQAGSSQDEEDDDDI
Outline: as §1

[3] = target: T3, LMAN2 (UniProt Q12907)
T3 sequence (whole entry): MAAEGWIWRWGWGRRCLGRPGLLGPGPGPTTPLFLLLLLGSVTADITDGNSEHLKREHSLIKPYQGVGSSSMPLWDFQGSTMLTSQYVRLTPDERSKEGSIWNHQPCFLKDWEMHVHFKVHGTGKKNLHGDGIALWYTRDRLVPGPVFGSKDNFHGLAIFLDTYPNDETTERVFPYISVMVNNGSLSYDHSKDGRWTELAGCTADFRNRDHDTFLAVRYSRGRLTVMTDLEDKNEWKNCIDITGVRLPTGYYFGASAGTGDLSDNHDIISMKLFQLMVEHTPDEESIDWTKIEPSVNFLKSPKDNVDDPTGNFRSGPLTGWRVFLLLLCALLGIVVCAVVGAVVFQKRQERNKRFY
Outline: as §1

[4] = target: T4, MFGE8 (UniProt Q08431)
T4 sequence (whole entry): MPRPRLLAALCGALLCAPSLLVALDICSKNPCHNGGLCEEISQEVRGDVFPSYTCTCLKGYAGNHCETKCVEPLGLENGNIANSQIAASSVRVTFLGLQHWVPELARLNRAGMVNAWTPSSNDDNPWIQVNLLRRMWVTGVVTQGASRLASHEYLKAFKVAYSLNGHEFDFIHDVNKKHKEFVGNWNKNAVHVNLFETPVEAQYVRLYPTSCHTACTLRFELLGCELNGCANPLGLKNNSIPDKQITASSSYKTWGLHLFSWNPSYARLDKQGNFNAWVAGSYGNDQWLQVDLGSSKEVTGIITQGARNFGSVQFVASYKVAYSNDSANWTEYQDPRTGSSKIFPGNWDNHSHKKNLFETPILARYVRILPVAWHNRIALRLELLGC
Outline: as §1

[5] = target: T5, MLLT11 (UniProt Q13015)
T5 sequence (whole entry): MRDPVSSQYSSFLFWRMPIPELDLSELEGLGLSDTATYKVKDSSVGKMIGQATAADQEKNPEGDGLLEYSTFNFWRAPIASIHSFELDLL
Outline: as §1

[6] = target: T6, UniProt Q01432-5|Q01432 and related entries
T6 sequence (whole entry): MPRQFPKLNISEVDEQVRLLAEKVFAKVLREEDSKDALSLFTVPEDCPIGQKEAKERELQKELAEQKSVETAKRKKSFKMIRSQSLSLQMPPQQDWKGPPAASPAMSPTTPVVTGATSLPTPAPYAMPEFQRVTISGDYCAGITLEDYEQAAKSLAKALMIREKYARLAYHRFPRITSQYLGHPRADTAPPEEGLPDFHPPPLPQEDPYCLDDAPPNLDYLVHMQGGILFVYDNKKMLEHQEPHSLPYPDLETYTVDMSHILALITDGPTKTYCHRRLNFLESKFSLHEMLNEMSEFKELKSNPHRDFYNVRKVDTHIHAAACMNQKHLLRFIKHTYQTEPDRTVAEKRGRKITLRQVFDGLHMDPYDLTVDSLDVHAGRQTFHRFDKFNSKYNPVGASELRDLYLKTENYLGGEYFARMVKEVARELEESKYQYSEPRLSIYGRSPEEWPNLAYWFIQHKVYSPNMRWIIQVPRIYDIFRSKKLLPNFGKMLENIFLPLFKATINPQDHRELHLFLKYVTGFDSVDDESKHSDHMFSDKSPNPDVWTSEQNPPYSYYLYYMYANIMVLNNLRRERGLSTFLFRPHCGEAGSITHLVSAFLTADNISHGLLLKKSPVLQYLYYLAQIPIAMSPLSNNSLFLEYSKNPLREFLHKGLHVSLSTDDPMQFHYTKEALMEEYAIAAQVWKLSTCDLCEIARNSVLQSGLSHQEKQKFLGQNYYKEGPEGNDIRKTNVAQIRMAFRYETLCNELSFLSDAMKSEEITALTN
Outline: as §1

[7] = target: T7, UniProt Q01850 and related entries
T7 sequence (whole entry): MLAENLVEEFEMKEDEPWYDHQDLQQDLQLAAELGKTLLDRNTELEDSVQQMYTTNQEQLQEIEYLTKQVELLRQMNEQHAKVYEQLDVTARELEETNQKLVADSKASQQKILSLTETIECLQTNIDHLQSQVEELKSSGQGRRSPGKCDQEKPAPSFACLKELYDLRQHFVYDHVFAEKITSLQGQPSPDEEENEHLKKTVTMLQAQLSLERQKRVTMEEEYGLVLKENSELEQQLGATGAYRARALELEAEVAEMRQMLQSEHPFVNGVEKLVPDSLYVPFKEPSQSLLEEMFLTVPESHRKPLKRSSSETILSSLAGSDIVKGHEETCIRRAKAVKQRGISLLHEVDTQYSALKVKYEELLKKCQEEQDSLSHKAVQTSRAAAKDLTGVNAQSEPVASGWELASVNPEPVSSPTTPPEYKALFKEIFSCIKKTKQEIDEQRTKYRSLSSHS
Outline: as §1

[8] = target: T8, UniProt Q12974
T8 sequence (whole entry): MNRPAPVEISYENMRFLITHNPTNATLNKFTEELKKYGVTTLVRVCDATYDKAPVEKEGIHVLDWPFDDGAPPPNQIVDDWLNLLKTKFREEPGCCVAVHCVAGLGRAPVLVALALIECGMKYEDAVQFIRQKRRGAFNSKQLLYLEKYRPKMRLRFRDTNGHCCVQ
Outline: as §1

[9] = target: T9, UniProt Q13188 and related entries
T9 sequence (whole entry): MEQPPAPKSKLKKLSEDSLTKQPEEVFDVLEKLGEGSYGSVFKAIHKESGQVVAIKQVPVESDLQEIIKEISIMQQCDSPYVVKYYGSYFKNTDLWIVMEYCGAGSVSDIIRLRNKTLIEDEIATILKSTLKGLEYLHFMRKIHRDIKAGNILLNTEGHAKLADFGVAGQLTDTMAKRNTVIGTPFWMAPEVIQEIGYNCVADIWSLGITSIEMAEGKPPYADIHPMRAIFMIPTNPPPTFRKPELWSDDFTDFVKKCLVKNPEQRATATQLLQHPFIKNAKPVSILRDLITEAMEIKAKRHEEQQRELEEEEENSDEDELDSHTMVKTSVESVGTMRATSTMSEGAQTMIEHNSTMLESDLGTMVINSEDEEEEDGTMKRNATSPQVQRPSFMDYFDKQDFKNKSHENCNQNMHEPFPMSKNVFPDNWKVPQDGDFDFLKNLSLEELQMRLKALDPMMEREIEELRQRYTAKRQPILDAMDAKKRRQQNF
Outline: as §1

SMILES: Nc1ncnc2c1ncn2[C@@H]1O[C@H](COP(=O)(O)OP(=O)(O)OP(=O)(O)O)[C@@H](O)[C@H]1O [adenosine triphosphate]
- NP40-soluble protein abundance ([1]; concentration: 1mM): 1 ± 0.062
- NP40-soluble protein abundance ([1]; concentration: 2mM): 0.976 ± 0.067
- NP40-soluble protein abundance ([1]; concentration: 4mM): 0.958 ± 0.049
- NP40-soluble protein abundance ([1]; concentration: 6mM): 0.947 ± 0.065
- NP40-soluble protein abundance ([1]; concentration: 8mM): 0.957 ± 0.05
- NP40-soluble protein abundance ([1]; concentration: 10mM): 0.95 ± 0.055
- NP40-soluble protein abundance ([2]; concentration: 1mM): 0.871 ± 0.18
- NP40-soluble protein abundance ([2]; concentration: 2mM): 0.832 ± 0.099
- NP40-soluble protein abundance ([2]; concentration: 4mM): 0.707 ± 0.12
- NP40-soluble protein abundance ([2]; concentration: 6mM): 0.773 ± 0.12
- NP40-soluble protein abundance ([2]; concentration: 8mM): 0.76 ± 0.047
- NP40-soluble protein abundance ([2]; concentration: 10mM): 0.683 ± 0.16
- NP40-soluble protein abundance ([3]; concentration: 1mM): 0.987 ± 0.087
- NP40-soluble protein abundance ([3]; concentration: 2mM): 0.998 ± 0.067
- NP40-soluble protein abundance ([3]; concentration: 4mM): 0.958 ± 0.055
- NP40-soluble protein abundance ([3]; concentration: 6mM): 0.945 ± 0.11
- NP40-soluble protein abundance ([3]; concentration: 8mM): 0.986 ± 0.045
- NP40-soluble protein abundance ([3]; concentration: 10mM): 0.993 ± 0.053
- NP40-soluble protein abundance ([4]; concentration: 1mM): 0.983 ± 0.039
- NP40-soluble protein abundance ([4]; concentration: 2mM): 0.987 ± 0.024
- NP40-soluble protein abundance ([4]; concentration: 4mM): 0.973 ± 0.077
- NP40-soluble protein abundance ([4]; concentration: 6mM): 0.924 ± 0.06
- NP40-soluble protein abundance ([4]; concentration: 8mM): 0.9526 ± 0.005
- NP40-soluble protein abundance ([4]; concentration: 10mM): 0.998 ± 0.046
- NP40-soluble protein abundance ([5]; concentration: 1mM): 1.2 ± 0.024
- NP40-soluble protein abundance ([5]; concentration: 2mM): 1.15 ± 0.069
- NP40-soluble protein abundance ([5]; concentration: 4mM): 0.815 ± 0.03
- NP40-soluble protein abundance ([5]; concentration: 6mM): 0.892 ± 0.22
- NP40-soluble protein abundance ([5]; concentration: 8mM): 0.905 ± 0.078
- NP40-soluble protein abundance ([5]; concentration: 10mM): 0.837 ± 0.092
- NP40-soluble protein abundance ([6]; concentration: 1mM): 1.04 ± 0.024
- NP40-soluble protein abundance ([6]; concentration: 2mM): 1.03 ± 0.036
- NP40-soluble protein abundance ([6]; concentration: 4mM): 1.01 ± 0.026
- NP40-soluble protein abundance ([6]; concentration: 6mM): 0.964 ± 0.048
- NP40-soluble protein abundance ([6]; concentration: 8mM): 1.022 ± 0.0056
- NP40-soluble protein abundance ([6]; concentration: 10mM): 1.02 ± 0.05
- NP40-soluble protein abundance ([7]; concentration: 1mM): 0.893 ± 0.066
- NP40-soluble protein abundance ([7]; concentration: 2mM): 0.99 ± 0.062
- NP40-soluble protein abundance ([7]; concentration: 4mM): 0.921 ± 0.042
- NP40-soluble protein abundance ([7]; concentration: 6mM): 0.962 ± 0.066
- NP40-soluble protein abundance ([7]; concentration: 8mM): 0.873 ± 0.034
- NP40-soluble protein abundance ([7]; concentration: 10mM): 0.914 ± 0.12
- NP40-soluble protein abundance ([8]; concentration: 1mM): 0.978 ± 0.052
- NP40-soluble protein abundance ([8]; concentration: 2mM): 0.948 ± 0.032
- NP40-soluble protein abundance ([8]; concentration: 4mM): 0.914 ± 0.058
- NP40-soluble protein abundance ([8]; concentration: 6mM): 0.938 ± 0.079
- NP40-soluble protein abundance ([8]; concentration: 8mM): 0.927 ± 0.048
- NP40-soluble protein abundance ([8]; concentration: 10mM): 0.898 ± 0.032
- NP40-soluble protein abundance ([9]; concentration: 1mM): 0.954 ± 0.048
- NP40-soluble protein abundance ([9]; concentration: 2mM): 0.974 ± 0.038
- NP40-soluble protein abundance ([9]; concentration: 4mM): 0.949 ± 0.034
- NP40-soluble protein abundance ([9]; concentration: 6mM): 0.962 ± 0.033
- NP40-soluble protein abundance ([9]; concentration: 8mM): 0.951 ± 0.024
- NP40-soluble protein abundance ([9]; concentration: 10mM): 0.933 ± 0.017

Source: the supplement of paper PMC6411743
